From paper PMC6392109
Results are given in words; binding and its absence hold for the method and conditions named. Binding seen in cells or lysates may run through a third protein. Some results given as binding are weak or reduced against the parent protein; the word gives no strength.

Amino acid sequences for entries named in this document (tags omitted).
UniProt Q60857: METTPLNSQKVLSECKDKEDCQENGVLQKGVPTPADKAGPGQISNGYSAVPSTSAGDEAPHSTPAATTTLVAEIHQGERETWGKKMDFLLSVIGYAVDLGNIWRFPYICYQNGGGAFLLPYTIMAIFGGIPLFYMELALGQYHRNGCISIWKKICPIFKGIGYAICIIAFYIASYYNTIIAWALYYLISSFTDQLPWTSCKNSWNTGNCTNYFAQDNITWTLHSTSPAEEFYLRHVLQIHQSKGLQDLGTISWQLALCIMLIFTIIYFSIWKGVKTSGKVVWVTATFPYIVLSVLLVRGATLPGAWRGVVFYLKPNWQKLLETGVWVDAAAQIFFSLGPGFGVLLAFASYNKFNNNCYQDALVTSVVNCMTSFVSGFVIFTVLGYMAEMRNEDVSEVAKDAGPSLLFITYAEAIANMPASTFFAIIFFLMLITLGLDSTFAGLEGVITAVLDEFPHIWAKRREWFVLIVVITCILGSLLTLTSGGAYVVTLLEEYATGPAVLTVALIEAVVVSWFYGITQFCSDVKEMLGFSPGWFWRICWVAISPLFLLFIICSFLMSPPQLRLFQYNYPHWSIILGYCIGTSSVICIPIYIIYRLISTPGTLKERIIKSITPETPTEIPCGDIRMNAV

Molecular target: serotonin transporter (SERT), endogenous in mouse brain (mouse (endogenous in mouse brain)) (UniProt Q60857)
Assay: co-IP; mouse brain lysate; immunoprecipitation with anti-SERT antibody (sc-1458, 1:100), no antibody as negative control; western blot of the eluate for SERT and Flot1; Flot1 KO and SERT-KO tissue as controls

- binding: binds
B1: Flotillin-1 (Flot1), endogenous in mouse brain (protein, UniProt O08917 1-428)
chain: MFFTCGPNEAMVVSGFCRSPPVMVAGGRVFVLPCIQQIQRISLNTLTLNVKSEKVYTRHGVPISVTGIAQVKIQGQNKEMLAAACQMFLGKTEAEIAHIALETLEGHQRAIMAHMTVEEIYKDRQKFSEQVFKVASSDLVNMGISVVSYTLKDIHDDQDYLHSLGKARTAQVQKDARIGEAEAKRDAGIREAKAKQEKVSAQCLSEIEMAKAQRDYELKKATYDIEVNTRRAQADLAYQLQVAKTKQQIEEQRVQVQVVERAQQVAVQEQEIARREKELEARVRKPAEAERYRLERLAEAEKAQLIMQAEAEAESVRMRGEAEAFAIGARARAEAEQMAKKAEAFQMYQEAAQLDMLLEKLPQVAEEISGPLTSANKITLVSSGSGTMGAAKVTGEVLDILSRLPESVERLTGVSISQVNHNKPLRTA
